Source: PubChem BioAssay AID2417 (National Center for Advancing Translational Sciences (NCATS), 2010)
In all, about 140,000 compounds went through this assay and about 4,300 (3.1%) were called active. The inconclusive results got no clear call from the source; some entries with a clear call stand among them for comparison.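 Rule for the calls: active = readout at or below -70, meaning at least 70% loss of cells showing the perinucleolar compartment, a nuclear body marking cancer cells; inconclusive = readout between -30 and a set limit; inactive = the rest.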

Test: High Content Assay for Compounds that inhibit the Assembly of the Perinucleolar Compartment;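 note: plate controls were DMSO wells for no effect and camptothecin positive control wells for full effect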
Details: PC3M PTB-GFP, PNC prevalence imaging, 16 h; at 10 µM; active compounds read low
Summary of the method: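 Compounds are pinned in duplicate onto adhered PC3M cells stably expressing GFP-tagged PTB and incubated 16 h at 37 C. Cells are then fixed, nuclei stained with Hoechst, and PNC-positive cells counted.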

Question: Which activity change (PNC), negative = inhibition does the source give for `CC(=O)Nc1ccc(S(=O)(=O)Oc2ccc(/C=N/NC(=O)c3ccc(Cl)cc3)cc2)cc1` here?
Answer: inactive: 37.9%

Question: For `Cc1nn(-c2ccccc2)c(C)c1/C=N/NC(=O)CSc1nnc(SCc2ccc(Cl)cc2)s1`, which activity change (PNC), negative = inhibition is on record?
Answer: inactive: 42.4%

Question: With `COc1ccccc1C1C=C(c2ccccc2)Nc2nnnn21` (centres undefined) as the compound, how does the activity change (PNC), negative = inhibition read?
Answer: inconclusive: -37.1%

Question: Which activity change (PNC), negative = inhibition does the source give for `COCCNC(=O)CSc1nc2cc(OC)c(OC)cc2c(=O)n1CCC1=CCCCC1` here?
Answer: inconclusive: -38.6%

Question: With `COc1ccc(C(=O)Nc2ccc(NC(=O)c3cccs3)cc2)cc1Cl` as the compound, how does the activity change (PNC), negative = inhibition read?
Answer: inconclusive: -42.4%

Question: For `CCc1nc2cc(Cl)c(Cl)cc2[nH]1`, which activity change (PNC), negative = inhibition is on record?
Answer: inconclusive: -52.3%

Question: With `O=C(CSc1nc2c(c(=O)n1-c1ccc(F)cc1)SCC2)NCc1ccco1` as the compound, how does the activity change (PNC), negative = inhibition read?
Answer: inactive: 16.3%

Question: With `CCOC(=O)c1ccc(NC(=O)Cn2nnc(-c3ccccc3)n2)cc1` as the compound, how does the activity change (PNC), negative = inhibition read?
Answer: inconclusive: -61.1%

Question: With `O=C(O)COc1cccc2ccccc12` as the compound, how does the activity change (PNC), negative = inhibition read?
Answer: inconclusive: -41.4%

Question: Which activity change (PNC), negative = inhibition does the source give for `COc1ccc(-c2noc(-c3ccc4c(c3)OCO4)n2)cc1` here?
Answer: inactive: 33.2%

Question: For `CC(=O)OCC(=O)[C@@]1(O)CC[C@H]2[C@@H]3CCC4=CC(=O)C=C[C@]4(C)[C@H]3[C@@H](O)C[C@@]21C`, which activity change (PNC), negative = inhibition is on record?
Answer: inconclusive: -33.8%

Question: For `CCn1c(SCC(=O)N2CCc3ccccc3C2)nc2sc(C)c(C)c2c1=O`, which activity change (PNC), negative = inhibition is on record?
Answer: inconclusive: -54.7%

Question: With `[N-]=[N+]=CC(=O)CNC(=O)[C@@H](Cc1ccccc1)N1C(=O)c2ccccc2C1=O` as the compound, how does the activity change (PNC), negative = inhibition read?
Answer: inconclusive: -46.7%

Question: Which activity change (PNC), negative = inhibition does the source give for `CCOC(=O)N1CCC(NC(=O)CCc2c(C)nc3nc(C)nn3c2C)CC1` here?
Answer: inconclusive: -45.4%

Question: With `CC(=O)NC1(c2ccc(F)cc2)CCN(C(=O)Nc2ccc(F)cc2F)CC1` as the compound, how does the activity change (PNC), negative = inhibition read?
Answer: inactive: 26.2%

Question: With `Cc1ccc(C(=O)CCNc2ccccc2)o1` as the compound, how does the activity change (PNC), negative = inhibition read?
Answer: inactive: -17.3%

Question: Which activity change (PNC), negative = inhibition does the source give for `COc1ccc(Nc2ccc(Nc3ccc(OC)cc3)nn2)cc1` here?
Answer: inconclusive: -33.2%

Question: For `Cc1nc(Cl)sc1C(=O)Nc1cccc(Cl)c1C`, which activity change (PNC), negative = inhibition is on record?
Answer: inactive: -27.6%

Question: With `CSc1nc(N(C)NC(=O)c2ccccc2)c2ccccc2n1` as the compound, how does the activity change (PNC), negative = inhibition read?
Answer: inconclusive: -75.8%

Question: Which activity change (PNC), negative = inhibition does the source give for `Cn1cccc1Cc1nnc(SCC(=O)N2CCc3ccccc32)n1CCc1ccccc1` here?
Answer: inconclusive: -53.3%

Question: With `COc1cccc(N2CCN(C(=O)c3[nH]c(C)c(C(C)=O)c3C)CC2)c1` as the compound, how does the activity change (PNC), negative = inhibition read?
Answer: inconclusive: -77.9%

Question: With `O=C1OC(c2ccccc2)/C(=C(/O)c2ccc(Cl)cc2)C1=O` (centres undefined) as the compound, how does the activity change (PNC), negative = inhibition read?
Answer: inactive: 3.26%

Question: Which activity change (PNC), negative = inhibition does the source give for `O=C(Nc1ccc(Cl)c(S(=O)(=O)N2CCOCC2)c1)c1ccccc1-c1ccc(C(F)(F)F)cc1` here?
Answer: inactive: 21%

Question: Which activity change (PNC), negative = inhibition does the source give for `O=C(CC12CC3CC(CC(C3)C1)C2)Nc1cccc2ncccc12` here?
Answer: inconclusive: -35.3%
